From publication doi:10.1101/2024.01.10.575035
No constants are given. Whether binding was seen depends on the method and setting. In cells and extracts the contact can be indirect. Some results given as binding are weak or reduced against the parent protein; the word gives no strength.

Protein sequences, listed by entry. Tags and fused reporters are not part of them.
UniProt P27816: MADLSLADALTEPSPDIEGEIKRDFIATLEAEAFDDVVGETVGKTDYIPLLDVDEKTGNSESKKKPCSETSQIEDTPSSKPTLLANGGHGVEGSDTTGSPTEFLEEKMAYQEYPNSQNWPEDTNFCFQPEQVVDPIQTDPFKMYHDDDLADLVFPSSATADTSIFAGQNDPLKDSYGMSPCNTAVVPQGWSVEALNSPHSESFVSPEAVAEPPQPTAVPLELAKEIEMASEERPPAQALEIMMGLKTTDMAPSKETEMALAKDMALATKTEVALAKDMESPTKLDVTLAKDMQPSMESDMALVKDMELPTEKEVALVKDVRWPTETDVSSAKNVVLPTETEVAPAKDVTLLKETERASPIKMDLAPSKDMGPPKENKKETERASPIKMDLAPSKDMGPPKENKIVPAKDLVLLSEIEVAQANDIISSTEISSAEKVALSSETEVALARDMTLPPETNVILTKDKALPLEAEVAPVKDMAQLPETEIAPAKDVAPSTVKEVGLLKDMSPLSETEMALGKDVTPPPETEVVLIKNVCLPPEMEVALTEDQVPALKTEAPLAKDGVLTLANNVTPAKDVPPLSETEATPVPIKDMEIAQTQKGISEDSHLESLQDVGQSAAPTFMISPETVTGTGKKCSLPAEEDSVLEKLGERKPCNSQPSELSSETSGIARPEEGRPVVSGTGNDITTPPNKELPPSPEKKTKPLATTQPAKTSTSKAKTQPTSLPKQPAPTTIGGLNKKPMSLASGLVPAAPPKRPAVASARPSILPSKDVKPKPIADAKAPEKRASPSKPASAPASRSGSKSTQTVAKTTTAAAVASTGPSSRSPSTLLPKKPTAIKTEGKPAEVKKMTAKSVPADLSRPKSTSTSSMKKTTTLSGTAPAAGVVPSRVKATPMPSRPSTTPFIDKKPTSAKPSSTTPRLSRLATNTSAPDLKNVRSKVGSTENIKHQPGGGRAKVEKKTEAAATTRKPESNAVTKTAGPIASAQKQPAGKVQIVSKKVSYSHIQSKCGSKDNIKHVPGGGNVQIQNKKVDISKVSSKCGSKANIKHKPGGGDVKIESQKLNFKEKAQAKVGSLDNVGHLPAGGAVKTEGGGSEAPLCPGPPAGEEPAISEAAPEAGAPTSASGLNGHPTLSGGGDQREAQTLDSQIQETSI
UniProt O00459: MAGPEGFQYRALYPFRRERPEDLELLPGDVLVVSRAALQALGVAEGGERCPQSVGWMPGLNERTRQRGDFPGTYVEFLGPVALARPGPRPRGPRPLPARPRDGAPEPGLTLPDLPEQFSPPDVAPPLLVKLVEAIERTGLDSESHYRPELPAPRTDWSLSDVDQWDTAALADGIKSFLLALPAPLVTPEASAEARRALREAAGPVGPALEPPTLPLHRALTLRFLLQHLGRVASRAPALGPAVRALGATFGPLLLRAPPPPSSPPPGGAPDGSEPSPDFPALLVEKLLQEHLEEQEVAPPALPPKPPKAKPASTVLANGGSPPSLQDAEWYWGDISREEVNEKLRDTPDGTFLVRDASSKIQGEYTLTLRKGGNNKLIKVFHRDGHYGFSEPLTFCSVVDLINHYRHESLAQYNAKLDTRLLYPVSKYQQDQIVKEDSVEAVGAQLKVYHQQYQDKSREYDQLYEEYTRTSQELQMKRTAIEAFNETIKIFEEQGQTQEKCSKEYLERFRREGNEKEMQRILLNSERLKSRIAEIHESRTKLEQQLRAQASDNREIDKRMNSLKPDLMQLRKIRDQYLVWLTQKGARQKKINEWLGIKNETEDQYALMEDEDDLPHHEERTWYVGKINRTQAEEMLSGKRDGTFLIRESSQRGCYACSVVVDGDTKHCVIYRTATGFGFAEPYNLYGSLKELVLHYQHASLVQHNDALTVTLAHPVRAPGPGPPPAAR

Key:
[1] = target: HA-tagged wild-type p110α (stably expressed in MDA-MB-231) (human) (UniProt P42336); experiment: co-IP
[2] = target: p110α catalytic subunit (endogenous, MDA-MB-231) (human (endogenous in MDA-MB-231)) (UniProt P42336); experiment: proximity ligation
[3] = target: p110α catalytic subunit (endogenous, MDA-MB-231) (human (endogenous in MDA-MB-231)) (UniProt P42336); experiment: co-IP

With “EGFR (endogenous, MDA-MB-231) (from UniProt P00533 25-1210) (receptor)” the binding [1] was “binds”.

In the case of “microtubule-associated protein 4 (MAP4) (endogenous, MDA-MB-231) (from UniProt P27816 1-1152)”, the binding [2] is reported as “binds” and the binding [3] is reported as “binds”.

In the case of “p85β adaptor subunit (endogenous, MDA-MB-231) (from UniProt O00459 1-728)”, the binding [3] is reported as “binds”.
